Data taken from PubChem BioAssay AID1053133, deposited by Broad Institute (2014).

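Plate-reader measure of the Venus reporter marking one vaccinia stage in infected cells (the cell line is not named here); read time unknown.
The test concentration is not given here.
Percent change in Venus reporter signal; lower (more negative) values mean stronger inhibition of that viral stage.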

Values are in %.
The controls that fix the scale are not given here.
Common to all entries: measured here: Venus reporter, other viral stage.
This is a side read-out of the assay, for part of the compounds, not drawn at random.

{"structure": "CC(C)CC#Cc1ccc([C@@H]2[C@H]3CN(C(=O)Cc4ccccn4)CCCCN3[C@H]2CO)cc1", "activity change (Venus) (%)": "-27.26"}
{"structure": "C=CCN1C(=S)N[C@@H]2c3ccccc3O[C@@]1(C)[C@@H]2C(=O)OCC", "activity change (Venus) (%)": "-14.51"}
{"structure": "O=C(CN1CCOCC1)N1CC(=O)N2[C@H](CO)[C@@H](c3ccc(/C=C/c4ccccc4)cc3)[C@H]2C1", "activity change (Venus) (%)": "-45.56"}
{"structure": "CC(C)C#Cc1ccc2c(c1)O[C@H](CN(C)Cc1ccccn1)[C@@H](C)CN([C@@H](C)CO)S2(=O)=O", "activity change (Venus) (%)": "-41.49"}
{"structure": "CN1c2ccc(-c3ccccc3)cc2[C@@H]2[C@@H](CCN2C(=O)NC2CCCCC2)[C@H]1CO", "activity change (Venus) (%)": "-41.39"}
{"structure": "Cc1ccc(S(=O)(=O)N(C)C[C@@H]2OCCCC[C@@H](C)Oc3ccc(NS(=O)(=O)c4ccc(Cl)cc4)cc3C(=O)N([C@H](C)CO)C[C@H]2C)cc1", "activity change (Venus) (%)": "-44.35"}
{"structure": "O=C(c1ccc(F)cc1)N1CCCCN2[C@H](CO)[C@@H](c3ccc(-c4ccc(F)cc4)cc3)[C@@H]2C1", "activity change (Venus) (%)": "-37.42"}
{"structure": "O=C(Nc1ccccc1)N1CCCCN2[C@H](CO)[C@@H](c3ccc(C#CC4CC4)cc3)[C@H]2C1", "activity change (Venus) (%)": "-41.81"}
{"structure": "C[C@@H]1CCCCO[C@@H](CN(C)Cc2ccc(C(F)(F)F)cc2)[C@@H](C)CN([C@H](C)CO)C(=O)c2cc(NS(=O)(=O)c3ccccc3)ccc2O1", "activity change (Venus) (%)": "-27.93"}
{"structure": "C[C@H]1CN([C@@H](C)CO)C(=O)c2c(c3ccccc3n2C)-c2ccccc2CO[C@H]1CN(C)C(=O)Nc1cccc(Cl)c1Cl", "activity change (Venus) (%)": "-83.68"}
{"structure": "O=C(C1CCCCC1)N1C[C@@H]2N[C@H](C1)C2c1ccc(-c2cccc(F)c2)cc1", "stereo": "some centres undefined", "activity change (Venus) (%)": "-83.84"}
{"structure": "O=C(C[C@H]1CC[C@@H]2[C@H](COC[C@H](O)CN2S(=O)(=O)c2ccccc2)O1)NCc1ccc(-c2ccccc2)cc1", "activity change (Venus) (%)": "-51.19"}
{"structure": "C[C@H](CO)N1C[C@H](C)[C@@H](CN(C)C(=O)Nc2cccc(C(F)(F)F)c2)OCc2ccccc2-c2ccccc2C1=O", "activity change (Venus) (%)": "-35.51"}
{"structure": "C[C@@H]1CCCCO[C@H](CN(C)S(=O)(=O)c2cccs2)[C@H](C)CN([C@H](C)CO)C(=O)c2cc(NC(=O)CCC(F)(F)F)ccc2O1", "activity change (Venus) (%)": "-30.91"}
{"structure": "C[C@H](CO)N1C[C@H](C)[C@@H](CN(C)C(=O)Nc2cccc3ccccc23)Oc2c(NC(=O)c3ccc(-c4nccs4)cc3)cccc2C1=O", "activity change (Venus) (%)": "-22.82"}
{"structure": "CC(=O)N(C)C[C@@H]1Oc2cc(C#Cc3ccc(F)cc3)ccc2S(=O)(=O)N([C@H](C)CO)C[C@H]1C", "activity change (Venus) (%)": "-35.32"}
{"structure": "C[C@@H]1CN([C@H](C)CO)C(=O)c2cc(NC(=O)Nc3ccc4c(c3)OCO4)ccc2O[C@@H](C)CCCCO[C@H]1CN(C)Cc1ccc2c(c1)OCO2", "activity change (Venus) (%)": "-54.17"}
{"structure": "COc1ccccc1S(=O)(=O)N(C)C[C@H]1OCc2ccccc2-c2c(n(C)c3ccccc23)C(=O)N([C@H](C)CO)C[C@@H]1C", "activity change (Venus) (%)": "-57.21"}
{"structure": "N#Cc1ccc(-c2ccc(C3[C@@H]4CN(C(=O)C5CCCC5)C[C@H]3N4)cc2)cc1", "stereo": "some centres undefined", "activity change (Venus) (%)": "-88.3"}
{"structure": "CC(C)CC#Cc1ccc2c(c1)O[C@@H](CN(C)C(=O)Cc1ccccc1)[C@@H](C)CN([C@@H](C)CO)S2(=O)=O", "activity change (Venus) (%)": "-29.19"}
{"structure": "CO[C@H]1CN(C)C(=O)c2ccc(NC(=O)c3ccc(Oc4ccccc4)cc3)cc2OC[C@@H](C)NC[C@H]1C", "activity change (Venus) (%)": "-60.06"}
{"structure": "CN1c2ccc(-c3cccc(F)c3)cc2[C@@H]2[C@@H](CCN2C(=O)C2CC2)[C@@H]1CO", "activity change (Venus) (%)": "-51.86"}
{"structure": "CN1c2ccc(C3=CCCCC3)cc2[C@H]2[C@H](CCN2C(=O)NC2CCCC2)[C@@H]1CO", "activity change (Venus) (%)": "-27.36"}
{"structure": "C[C@H](CO)N1C[C@H](C)[C@@H](CN(C)C(=O)Nc2ccc(C(F)(F)F)cc2)Oc2ncc(-c3ccc(C#N)cc3)cc2C1=O", "activity change (Venus) (%)": "-36.4"}
{"structure": "Cc1ccc(S(=O)(=O)N(C)C[C@@H]2Oc3ccc(NC(=O)NC4CCCCC4)cc3CC(=O)N([C@@H](C)CO)C[C@H]2C)cc1", "activity change (Venus) (%)": "-34.48"}
{"structure": "Cc1ccc(-c2ccc3c(c2)O[C@H](CN(C)Cc2ccc(F)cc2)[C@H](C)CN([C@@H](C)CO)S3(=O)=O)cc1", "activity change (Venus) (%)": "-43.67"}
{"structure": "O=C(C[C@@H]1CC[C@H]2[C@@H](COC[C@@H](O)CN2CCc2ccccc2)O1)NCc1ccc(Oc2ccccc2)cc1", "activity change (Venus) (%)": "-65.44"}
{"structure": "Cc1ccc(S(=O)(=O)N(C)C[C@H]2Oc3ccc(NC(=O)Nc4ccc(C(F)(F)F)cc4)cc3CC(=O)N([C@H](C)CO)C[C@H]2C)cc1", "activity change (Venus) (%)": "-40.09"}
{"structure": "C[C@@H]1CN([C@@H](C)CO)C(=O)c2cc(NC(=O)CCCCCC(=O)Nc3ccccc3N)ccc2O[C@@H]1CN(C)CC1CCCCC1", "activity change (Venus) (%)": "-54.83"}
{"structure": "OC[C@H]1[C@@H](c2ccc(C#CC3CC3)cc2)[C@H]2CN(CCC(F)(F)F)CCCCN21", "activity change (Venus) (%)": "-38.69"}
{"structure": "CCCc1cn(CC[C@@H]2CC[C@H](NS(=O)(=O)c3ccc(-c4ccccc4)cc3)[C@H](CO)O2)nn1", "activity change (Venus) (%)": "-17.98"}
{"structure": "C[C@@H]1CN([C@@H](C)CO)C(=O)Cc2cc(NC(=O)Cc3ccccc3)ccc2O[C@H]1CN(C)Cc1ccc(-c2ccccc2)cc1", "activity change (Venus) (%)": "-30.96"}
{"structure": "Cc1cccc(-c2ccc([C@@H]3[C@H](CO)N4CCCCN(C(=O)NC(C)C)C[C@@H]34)cc2)c1", "activity change (Venus) (%)": "-66.59"}
{"structure": "CC(C)CC#Cc1cnc2c(c1)C(=O)N([C@H](C)CO)C[C@@H](C)[C@H](CN(C)C(=O)Cc1ccccc1)O2", "activity change (Venus) (%)": "-32.2"}
{"structure": "Cc1ccc(S(=O)(=O)N(C)C[C@@H]2Oc3c(NC(=O)Nc4ccccc4)cccc3C(=O)N([C@@H](C)CO)C[C@@H]2C)cc1", "activity change (Venus) (%)": "-42.92"}
{"structure": "Cc1ccc(-c2ccc3c(c2)O[C@H](CN(C)C(=O)CC2CC2)[C@H](C)CN([C@H](C)CO)S3(=O)=O)cc1", "activity change (Venus) (%)": "-30.53"}
{"structure": "C[C@@H]1CN([C@H](C)CO)C(=O)c2cc(NS(=O)(=O)c3ccc(Cl)cc3)ccc2O[C@@H]1CN(C)Cc1ccc(Cl)c(Cl)c1", "activity change (Venus) (%)": "-51.78"}
{"structure": "O=C(C1CCC1)N1C[C@@H]2N[C@H](C1)C2c1ccc(/C=C/c2ccccc2)cc1", "stereo": "some centres undefined", "activity change (Venus) (%)": "-83.02"}
{"structure": "CC(C)CC#Cc1ccc([C@H]2[C@H]3CN(C(=O)c4ccc5c(c4)OCO5)CCCCN3[C@H]2CO)cc1", "activity change (Venus) (%)": "-62.16"}